According to article PMC5800818:
No constants are given. Whether binding was seen depends on the method and setting. In cells and extracts the contact can be indirect. Some binding calls cover weakened binding; strength is not graded here. For part of these data: Where a sequence is shown, tags or fusion partners need not be part of it. Each block holds one binder with its values, some of them ahead of it.

Amino acid sequences for entries named in this document (tags omitted). A change or cut given only in a name is not applied to a line headed by its entry. Chains listed by the source or under a name are the forms on record and can include a tag or linker. Residues count along the entry.
GST-Mdm2^134–334 (Q00987, residues 128-328): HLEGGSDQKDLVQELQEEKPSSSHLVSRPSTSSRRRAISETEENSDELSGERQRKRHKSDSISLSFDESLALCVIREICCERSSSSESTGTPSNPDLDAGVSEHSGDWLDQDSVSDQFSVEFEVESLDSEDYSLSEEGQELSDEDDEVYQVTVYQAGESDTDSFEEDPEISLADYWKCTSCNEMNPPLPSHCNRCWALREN
GST-Mdm2^1–134 (Q00987, form named): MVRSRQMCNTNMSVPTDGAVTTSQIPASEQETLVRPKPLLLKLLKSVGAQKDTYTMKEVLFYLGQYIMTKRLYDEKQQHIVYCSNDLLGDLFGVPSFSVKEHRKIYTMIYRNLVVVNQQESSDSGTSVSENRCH

Experiments:
GST-Mdm2^134–334 (human) [1] = target: GST-Mdm2^134–334 (human) (UniProt Q00987); experiment: pull-down; purified GST-Mdm2 fragments (0.4 µM) with 0.75 mg of lysate of HEK293 cells expressing FLAG-tagged Numb fragments; FLAG immunoblot; only the target purified
GST-Mdm2^1–134 (human) = GST-Mdm2^1–134 (human) (UniProt Q00987); experiment: pull-down; as Fig. 1 C but with higher concentrations of Mdm2 1–134; not depicted; only the target purified
GST-Mdm2^134–334 (human) [2] = target: GST-Mdm2^134–334 (human) (UniProt Q00987); experiment: pull-down; GST-Mdm2 fragments (0.5 µM) with 1 mg of MCF-10A lysate; Numb immunoblot; only the target purified

binding (GST-Mdm2^134–334 (human) [1]): binds
B1: FLAG-tagged Numb^1–340 (N-terminal PTB-containing fragment of Numb-1) (domain or fragment, UniProt P49757-1 1-340)
chain: MNKLRQSFRRKKDVYVPEASRPHQWQTDEEGVRTGKCSFPVKYLGHVEVDESRGMHICEDAVKRLKAERKFFKGFFGKTGKKAVKAVLWVSADGLRVVDEKTKDLIVDQTIEKVSFCAPDRNFDRAFSYICRDGTTRRWICHCFMAVKDTGERLSHAVGCAFAACLERKQKREKECGVTATFDASRTTFTREGSFRVTTATEQAEREEIMKQMQDAKKAETDKIVVGSSVAPGNTAPSPSSPTSPTSDATTSLEMNNPHAIPRRHAPIEQLARQGSFRGFPALSQKMSPFKRQLSLRINELPSTMQRKTDFPIKNAVPEVEGEAESISSLCSQITNAFST

binding (GST-Mdm2^1–134 (human)): binds weakly | binding (GST-Mdm2^134–334 (human) [2]): binds
B2: endogenous Numb (protein, UniProt P49757 1-651)
chain: MNKLRQSFRRKKDVYVPEASRPHQWQTDEEGVRTGKCSFPVKYLGHVEVDESRGMHICEDAVKRLKAERKFFKGFFGKTGKKAVKAVLWVSADGLRVVDEKTKDLIVDQTIEKVSFCAPDRNFDRAFSYICRDGTTRRWICHCFMAVKDTGERLSHAVGCAFAACLERKQKREKECGVTATFDASRTTFTREGSFRVTTATEQAEREEIMKQMQDAKKAETDKIVVGSSVAPGNTAPSPSSPTSPTSDATTSLEMNNPHAIPRRHAPIEQLARQGSFRGFPALSQKMSPFKRQLSLRINELPSTMQRKTDFPIKNAVPEVEGEAESISSLCSQITNAFSTPEDPFSSAPMTKPVTVVAPQSPTFQANGTDSAFHVLAKPAHTALAPVAMPVRETNPWAHAPDAANKEIAATCSGTEWGQSSGAASPGLFQAGHRRTPSEADRWLEEVSKSVRAQQPQASAAPLQPVLQPPPPTAISQPASPFQGNAFLTSQPVPVGVVPALQPAFVPAQSYPVANGMPYPAPNVPVVGITPSQMVANVFGTAGHPQAAHPHQSPSLVRQQTFPHYEASSATTSPFFKPPAQHLNGSAAFNGVDDGRLASADRHTEVPTGTCPVDPFEAQWAALENKSKQRTNPSPTNPFSSDLQKTFEIEL
